According to paper PMC8113471:
Results are given in words; binding and its absence hold for the method and conditions named.

Sequences of proteins named here, by UniProt entry; tags and fusion partners are left off. Residues count along the entry.
GST-Tanc2-N (aa 1-1358) (Q9HCD6, residues 1-1358): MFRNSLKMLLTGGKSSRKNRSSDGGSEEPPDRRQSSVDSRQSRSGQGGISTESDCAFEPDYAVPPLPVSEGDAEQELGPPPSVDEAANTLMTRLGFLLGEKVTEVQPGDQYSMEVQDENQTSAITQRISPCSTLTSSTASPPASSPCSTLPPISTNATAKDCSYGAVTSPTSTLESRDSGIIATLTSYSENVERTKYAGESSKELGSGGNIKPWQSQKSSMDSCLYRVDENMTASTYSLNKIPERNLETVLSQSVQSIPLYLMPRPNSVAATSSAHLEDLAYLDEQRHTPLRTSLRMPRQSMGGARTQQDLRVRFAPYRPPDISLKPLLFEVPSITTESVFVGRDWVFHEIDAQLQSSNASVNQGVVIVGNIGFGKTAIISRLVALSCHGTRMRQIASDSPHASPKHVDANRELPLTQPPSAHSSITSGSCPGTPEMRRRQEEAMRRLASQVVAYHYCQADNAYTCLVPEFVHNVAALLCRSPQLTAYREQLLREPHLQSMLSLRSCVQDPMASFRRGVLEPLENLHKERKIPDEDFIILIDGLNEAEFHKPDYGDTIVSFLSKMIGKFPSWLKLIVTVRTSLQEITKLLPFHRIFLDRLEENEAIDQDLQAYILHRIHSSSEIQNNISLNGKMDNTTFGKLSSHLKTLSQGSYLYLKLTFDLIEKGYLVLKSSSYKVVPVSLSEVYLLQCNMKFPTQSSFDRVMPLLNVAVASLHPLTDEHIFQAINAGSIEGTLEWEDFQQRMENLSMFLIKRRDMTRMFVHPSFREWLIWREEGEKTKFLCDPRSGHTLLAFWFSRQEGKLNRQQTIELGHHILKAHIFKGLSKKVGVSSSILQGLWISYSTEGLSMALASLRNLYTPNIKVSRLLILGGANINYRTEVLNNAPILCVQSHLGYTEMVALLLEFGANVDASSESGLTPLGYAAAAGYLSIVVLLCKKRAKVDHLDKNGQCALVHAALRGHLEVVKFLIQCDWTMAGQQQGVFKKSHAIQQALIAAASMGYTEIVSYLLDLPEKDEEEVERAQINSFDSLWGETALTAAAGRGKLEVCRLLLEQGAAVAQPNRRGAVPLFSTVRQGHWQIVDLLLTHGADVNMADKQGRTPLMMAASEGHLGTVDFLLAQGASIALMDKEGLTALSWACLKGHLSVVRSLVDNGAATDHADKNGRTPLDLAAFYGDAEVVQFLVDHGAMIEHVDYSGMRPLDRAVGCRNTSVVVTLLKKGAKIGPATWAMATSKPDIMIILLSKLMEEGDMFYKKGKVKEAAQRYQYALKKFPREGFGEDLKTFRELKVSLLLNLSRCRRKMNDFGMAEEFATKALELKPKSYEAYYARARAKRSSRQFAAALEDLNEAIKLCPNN
GST-Tanc2-C (aa 1359-1990) (Q9HCD6, residues 1359-1990): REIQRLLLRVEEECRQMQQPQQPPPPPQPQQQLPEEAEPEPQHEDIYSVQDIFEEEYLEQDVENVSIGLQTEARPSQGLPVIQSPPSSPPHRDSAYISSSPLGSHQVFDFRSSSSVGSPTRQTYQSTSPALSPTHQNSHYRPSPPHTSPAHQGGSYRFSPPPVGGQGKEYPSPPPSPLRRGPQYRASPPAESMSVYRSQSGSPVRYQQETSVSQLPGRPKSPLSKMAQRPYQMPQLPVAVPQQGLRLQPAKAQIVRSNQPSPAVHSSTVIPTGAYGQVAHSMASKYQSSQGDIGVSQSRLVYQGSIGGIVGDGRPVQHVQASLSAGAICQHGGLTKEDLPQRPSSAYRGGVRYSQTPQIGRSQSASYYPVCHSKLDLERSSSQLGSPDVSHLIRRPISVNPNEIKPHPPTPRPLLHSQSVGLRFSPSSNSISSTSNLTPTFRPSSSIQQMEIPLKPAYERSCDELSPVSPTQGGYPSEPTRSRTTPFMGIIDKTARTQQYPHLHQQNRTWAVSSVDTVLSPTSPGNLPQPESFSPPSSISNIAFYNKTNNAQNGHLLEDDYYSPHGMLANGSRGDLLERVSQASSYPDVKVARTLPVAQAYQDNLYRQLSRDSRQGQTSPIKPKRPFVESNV
UniProt Q8TB45: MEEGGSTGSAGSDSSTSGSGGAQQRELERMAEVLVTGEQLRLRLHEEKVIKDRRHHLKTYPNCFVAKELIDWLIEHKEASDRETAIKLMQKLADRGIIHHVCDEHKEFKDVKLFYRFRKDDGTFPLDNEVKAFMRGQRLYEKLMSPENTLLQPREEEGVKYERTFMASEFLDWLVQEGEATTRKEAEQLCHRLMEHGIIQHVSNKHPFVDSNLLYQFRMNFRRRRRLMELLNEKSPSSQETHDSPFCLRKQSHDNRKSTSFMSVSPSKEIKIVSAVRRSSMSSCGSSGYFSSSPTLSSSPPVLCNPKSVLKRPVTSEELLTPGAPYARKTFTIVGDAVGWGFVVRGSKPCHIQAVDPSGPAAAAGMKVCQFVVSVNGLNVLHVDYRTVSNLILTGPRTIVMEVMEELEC

Columns and labels:
[1] = target: GST-Tanc2-N (aa 1-1358) (human) (UniProt Q9HCD6); experiment: pull-down; GST-Tanc2 proteins (full-length, N, C) immobilised on glutathione agarose beads, incubated with mTOR recombinant protein (0.5 µg) or Deptor protein in RIPA buffer for 2 h at 4 °C; washed three times; Coomassie staining or immunoblot; both purified
[2] = target: GST-Tanc2-C (aa 1359-1990) (human) (UniProt Q9HCD6); experiment: as above

binding [1]: no binding
binding [2]: no binding
Substance: purified Deptor protein (from UniProt Q8TB45 1-409)
